Source: the supplement of paper PMC10331698
± gives the standard deviation of the averaged measurements. Most entries show no effect beyond the scatter of the controls.

What was measured:
Experiment in all cases: level (log10 ratio to DMSO vehicle control); higher = higher biomarker level / cell amount than vehicle control
[1] = compound: FC(F)(F)C(F)(F)CNCC(F)(F)C(F)(F)F [Bis(1H,1H-perfluoropropyl)amine] (in DMSO); details: 2200 nM
Procedure: (§1)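 BioMAP Diversity Plus panel of 12 human primary cell co-culture systems (3C, 4H, LPS, SAg, BT, BF4T, BE3C, CASM3C, HDF3CGF, KF3CT, MyoF, Mphg). Compounds were added 1 h before stimulation and left for 24 h (MyoF 48 h; BT 72 h for soluble read-outs or 6 d for IgG). Biomarkers were read by ELISA, cytotoxicity by SRB, PBMC viability and proliferation by Alamar Blue. Each well value was divided by the mean of 8 DMSO control wells on the same plate and log10 transformed; duplicate blinded samples were tested at 4 concentrations.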

[2] = compound: OCC(F)(F)C(F)(F)C(F)(F)C(F)(F)C(F)(F)C(F)(F)CO [1H,1H,8H,8H-Perfluorooctane-1,8-diol] (in DMSO); details: 2200 nM
Procedure: as §1

[3] = compound: O=C(O)C(F)(OC(F)(F)C(F)(F)C(F)(F)F)C(F)(F)F [Ammonium perfluoro-2-methyl-3-oxahexanoate] (in Water)
Procedure: as §1

[4] = compound: OCC(F)(F)C(F)(F)C(F)(F)C(F)F [1H,1H,5H-Perfluoropentanol] (in DMSO); details: 2200 nM
Procedure: as §1

[5] = compound: FC(F)(F)C(F)(F)C(F)(F)C(F)(F)CCI [1H,1H,2H,2H-Perfluorohexyl iodide] (in DMSO); details: 2200 nM
Procedure: as §1

[6] = compound: C=C(C)C(=O)OCCC(F)(F)C(F)(F)C(F)(F)C(F)(F)C(F)(F)C(F)(F)F [6:2 Fluorotelomer methacrylate] (in DMSO); details: 2200 nM
Procedure: as §1

[7] = compound: OCCCC(F)(F)C(F)(F)C(F)(F)C(F)(F)C(F)(F)C(F)(F)C(F)(F)C(F)(F)F [3-(Perfluorooctyl)propanol] (in DMSO); details: 2200 nM
Procedure: as §1

[8] = compound: O=C(O)CCC(F)(F)C(F)(F)C(F)(F)F [3:3 Fluorotelomer carboxylic acid] (in DMSO); details: 2200 nM
Procedure: as §1

[9] = compound: CNS(=O)(=O)C(F)(F)C(F)(F)C(F)(F)C(F)(F)C(F)(F)C(F)(F)C(F)(F)C(F)(F)F [N-Methylperfluorooctanesulfonamide] (in DMSO); details: 2200 nM
Procedure: as §1

[10] = compound: O=C(O)C(F)(OC(F)(F)C(F)(OC(F)(F)C(F)(OC(F)(F)C(F)(F)C(F)(F)F)C(F)(F)F)C(F)(F)F)C(F)(F)F [Perfluoro-(2,5,8-trimethyl-3,6,9-trioxadodecanoic)acid] (in DMSO); details: 370 nM
Procedure: as §1

[11] = compound: O=C(O)C(F)(F)C(F)(F)C(F)(F)OC(F)(C(F)(F)F)C(F)(F)F [Perfluoro-4-isopropoxybutanoic acid] (in DMSO); details: 2200 nM
Procedure: as §1

[12] = compound: O=S(=O)(O)C(F)(F)C(F)(F)C(F)(F)C(F)(F)F [Perfluorobutanesulfonic acid] (in DMSO)
Procedure: as §1

[13] = compound: OCC(F)(F)C(F)(F)C(F)(F)C(F)(F)C(F)(F)C(F)(F)F [6:1 Fluorotelomer alcohol] (in DMSO); details: 2200 nM
Procedure: as §1

Hexafluoroglutaric acid = compound: O=C(O)C(F)(F)C(F)(F)C(F)(F)C(=O)O [Hexafluoroglutaric acid] (in DMSO)
Procedure: as §1

[14] = compound: FC(F)(F)COC(OCC(F)(F)F)OCC(F)(F)F [tris(Trifluoroethoxy)methane] (in DMSO); details: 2200 nM
Procedure: as §1

[15] = compound: OCC(F)(F)OC(F)(F)C(F)(F)OC(F)(F)CO [1H,1H,8H,8H-Perfluoro-3,6-dioxaoctane-1,8-diol] (in DMSO); details: 2200 nM
Procedure: as §1

Perfluorohexanoic acid = compound: O=C(O)C(F)(F)C(F)(F)C(F)(F)C(F)(F)C(F)(F)F [Perfluorohexanoic acid] (in DMSO)
Procedure: as §1

Test System	level (log10) [1]	level (log10) [2]	level (log10) ([3]; 2200 nM)	level (log10) ([3]; 6700 nM)	level (log10) ([3]; 20000 nM)	level (log10) ([3]; 60000 nM)	level (log10) [4]	level (log10) [5]	level (log10) [6]	level (log10) [7]	level (log10) [8]	level (log10) [9]	level (log10) [10]	level (log10) [11]	level (log10) ([12]; 2200 nM)	level (log10) ([12]; 6700 nM)	level (log10) ([12]; 20000 nM)	level (log10) ([12]; 60000 nM)	level (log10) [13]	level (log10) (Hexafluoroglutaric acid; 2200 nM)	level (log10) (Hexafluoroglutaric acid; 6700 nM)	level (log10) (Hexafluoroglutaric acid; 20000 nM)	level (log10) (Hexafluoroglutaric acid; 60000 nM)	level (log10) [14]	level (log10) [15]	level (log10) (Perfluorohexanoic acid; 2200 nM)	level (log10) (Perfluorohexanoic acid; 6700 nM)	level (log10) (Perfluorohexanoic acid; 20000 nM)	level (log10) (Perfluorohexanoic acid; 60000 nM)
BE3C:MMP-9	0 ± 0.038	-0.0185 ± 0.00071	-0.106 ± 0.054	-0.109 ± 0.051	-0.09 ± 0.03	-0.063 ± 0.035	-0.001 ± 0.028	0.019 ± 0.011	-0.0055 ± 0.015	0.015 ± 0.014	0.0175 ± 0.03	-0.047 ± 0.048	0.0055 ± 0.011	0.04 ± 0.023	-0.033 ± 0.021	-0.0125 ± 0.016	-0.0205 ± 0.0035	-0.0315 ± 0.0092	0.0205 ± 0.03	-0.0025 ± 0.018	-0.0035 ± 0.023	-0.0025 ± 0.032	0.0145 ± 0.042	0.002 ± 0.0085	-0.0035 ± 0.011	-0.023 ± 0.021	-0.0155 ± 0.018	-0.005 ± 0.0071	0.0145 ± 0.013
HDF3CGF:TIMP-1	0.015 ± 0.0042	0.009 ± 0.023	-0.045 ± 0.11	0.025 ± 0.0028	0.014 ± 0.024	-0.0135 ± 0.0064	-0.0055 ± 0.0035	0.045 ± 0.023	0.0235 ± 0.013	0.0105 ± 0.049	-0.0045 ± 0.029	0.0315 ± 0.018	-0.0015 ± 0.029	0.02 ± 0.02	0.0175 ± 0.016	-0.032 ± 0.064	0.0125 ± 0.0078	0.0195 ± 0.011	-0.024 ± 0.021	-0.032 ± 0.038	-0.0385 ± 0.026	-0.02 ± 0.072	-0.045 ± 0.073	0 ± 0.027	0.0055 ± 0.042	0.013 ± 0.0028	-0.0005 ± 0.0078	-0.002 ± 0.016	0.0025 ± 0.015
SAg:CD40	-0.0015 ± 0.00071	-0.0305 ± 0.042	-0.001 ± 0.04	-0.019 ± 0.013	-0.017 ± 0.0014	-0.0555 ± 0.077	-0.0285 ± 0.0078	0.007 ± 0.0042	-0.012 ± 0.017	-0.0195 ± 0.021	-0.004 ± 0.013	-0.019 ± 0.031	0.001 ± 0.0085	0.0005 ± 0.00071	-0.0335 ± 0.053	-0.0075 ± 0.0064	-0.024 ± 0.011	-0.0445 ± 0.036	0.013 ± 0.058	-0.005 ± 0.023	-0.012 ± 0.0014	-0.0225 ± 0.022	0.0095 ± 0.0092	0.0115 ± 0.025	0.013 ± 0.011	-0.001 ± 0.0028	0.0065 ± 0.016	-0.0145 ± 0.012	-0.0095 ± 0.021
